Here are results for one molecule from patent US20120045785A1.

No constants are given. Whether binding was seen depends on the method and setting. Some results given as binding are weak or reduced against the parent protein; the word gives no strength.

The target of the experiment is HtubB (Hybrid tubulin B; hybrid bacterial-bovine tubulin B) (Prosthecobacter dejongeii). Kind of experiment: gel filtration chromatography of a 1:1 mixture of the purified proteins. A general note: Size exclusion chromatography separates by hydrodynamic size, large species first.

B1: HtubA (Hybrid tubulin A; hybrid bacterial-bovine tubulin A) (designed binder, not shown: large carriers)
chain: MKVNNTIVVSIGQAGNQIAASFWKTVCLEHGIDPLTGQTAPGVAPRGNWSSFFSKLGESSSGSYVPRAIMVDLEPSVIDNVKATSGSLFNPANLISRTEGAGGNFAVGYLGAGREVLPEVMSRLDYEIDKCDNVGGIIVLHAIGGGTGSGFGALLISSLREEYPDIPVLSCAVLPSPQVSSVVTEPYNTVFALHQLVENADACLIFDNEALFDLAHRKWNIESPTVDDLNLLITEALAGITASMRFSGFLTVEITLRELLTNLVPQPRLHFLMCAFAPLTPPDRSKFEELGIEEMIKSLFDNGSVFAACSPMEGRFLSTAVLYRGIMEDKPLADAALAAMREKLPLTEWIPTAFKIGYVEQPGISHRKSMVLLANNTEIARVLDRICHNFDKLWQRKAFANWYLNEGMDEMEITELRSNANDLVSEYQQAQDSGAKAKVQDSAGDTGMRAAAAGVSDDARGSMSLRDLVDRRR
For B1, the binding entry was “binds”.
